T1: Imp3 (S. cerevisiae (endogenous in BY4741-derived strain)) (UniProt P32899)
T1 sequence: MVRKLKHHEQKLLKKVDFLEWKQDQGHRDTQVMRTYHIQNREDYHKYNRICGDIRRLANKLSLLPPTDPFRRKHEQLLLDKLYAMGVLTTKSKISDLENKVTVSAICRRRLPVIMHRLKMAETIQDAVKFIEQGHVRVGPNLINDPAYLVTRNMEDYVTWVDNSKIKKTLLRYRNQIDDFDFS

Chains of the proteins cited; added tags and fusions are not shown.
UniProt P42945: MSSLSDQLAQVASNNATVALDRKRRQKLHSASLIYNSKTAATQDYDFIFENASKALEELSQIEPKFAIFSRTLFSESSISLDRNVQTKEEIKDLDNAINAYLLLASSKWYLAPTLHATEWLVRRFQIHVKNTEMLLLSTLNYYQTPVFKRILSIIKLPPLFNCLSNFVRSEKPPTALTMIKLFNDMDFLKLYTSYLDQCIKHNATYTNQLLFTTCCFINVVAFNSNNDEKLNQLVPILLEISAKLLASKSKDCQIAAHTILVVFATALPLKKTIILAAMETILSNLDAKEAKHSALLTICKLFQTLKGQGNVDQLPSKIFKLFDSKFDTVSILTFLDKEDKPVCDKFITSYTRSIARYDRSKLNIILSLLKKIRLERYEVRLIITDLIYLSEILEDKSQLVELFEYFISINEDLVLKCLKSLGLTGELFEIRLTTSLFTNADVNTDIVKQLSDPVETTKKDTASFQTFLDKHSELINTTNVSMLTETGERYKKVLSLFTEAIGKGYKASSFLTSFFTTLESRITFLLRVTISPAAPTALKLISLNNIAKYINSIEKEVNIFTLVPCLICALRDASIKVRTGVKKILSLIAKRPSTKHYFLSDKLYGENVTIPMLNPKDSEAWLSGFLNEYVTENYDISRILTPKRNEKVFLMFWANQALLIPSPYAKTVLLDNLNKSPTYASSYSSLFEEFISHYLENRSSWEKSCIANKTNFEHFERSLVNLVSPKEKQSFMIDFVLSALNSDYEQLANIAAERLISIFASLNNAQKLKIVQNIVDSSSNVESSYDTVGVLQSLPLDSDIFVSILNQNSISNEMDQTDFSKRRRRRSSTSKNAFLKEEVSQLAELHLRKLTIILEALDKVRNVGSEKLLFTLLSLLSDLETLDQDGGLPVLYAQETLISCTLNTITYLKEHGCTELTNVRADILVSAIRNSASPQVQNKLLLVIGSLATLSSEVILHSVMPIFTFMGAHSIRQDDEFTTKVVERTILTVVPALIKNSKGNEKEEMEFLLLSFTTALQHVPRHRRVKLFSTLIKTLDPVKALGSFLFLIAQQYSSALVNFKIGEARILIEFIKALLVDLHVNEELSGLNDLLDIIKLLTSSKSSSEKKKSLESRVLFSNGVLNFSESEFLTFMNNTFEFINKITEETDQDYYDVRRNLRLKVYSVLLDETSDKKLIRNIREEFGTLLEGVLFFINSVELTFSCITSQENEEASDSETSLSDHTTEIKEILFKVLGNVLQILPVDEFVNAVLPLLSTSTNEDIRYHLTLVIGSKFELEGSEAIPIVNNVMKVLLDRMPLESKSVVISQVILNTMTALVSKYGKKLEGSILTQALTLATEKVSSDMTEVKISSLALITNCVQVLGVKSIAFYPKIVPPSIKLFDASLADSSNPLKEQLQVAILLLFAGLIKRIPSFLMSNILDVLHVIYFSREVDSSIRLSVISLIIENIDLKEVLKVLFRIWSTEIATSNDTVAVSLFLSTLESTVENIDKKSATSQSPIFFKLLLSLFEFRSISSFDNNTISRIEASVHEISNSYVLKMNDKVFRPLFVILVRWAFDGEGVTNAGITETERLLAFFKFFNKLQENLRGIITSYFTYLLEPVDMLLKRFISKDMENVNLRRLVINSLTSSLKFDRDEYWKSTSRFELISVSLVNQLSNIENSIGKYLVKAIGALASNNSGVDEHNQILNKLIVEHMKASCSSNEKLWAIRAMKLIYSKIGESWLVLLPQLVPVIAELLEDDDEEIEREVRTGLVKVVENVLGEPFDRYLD
UniProt P40055: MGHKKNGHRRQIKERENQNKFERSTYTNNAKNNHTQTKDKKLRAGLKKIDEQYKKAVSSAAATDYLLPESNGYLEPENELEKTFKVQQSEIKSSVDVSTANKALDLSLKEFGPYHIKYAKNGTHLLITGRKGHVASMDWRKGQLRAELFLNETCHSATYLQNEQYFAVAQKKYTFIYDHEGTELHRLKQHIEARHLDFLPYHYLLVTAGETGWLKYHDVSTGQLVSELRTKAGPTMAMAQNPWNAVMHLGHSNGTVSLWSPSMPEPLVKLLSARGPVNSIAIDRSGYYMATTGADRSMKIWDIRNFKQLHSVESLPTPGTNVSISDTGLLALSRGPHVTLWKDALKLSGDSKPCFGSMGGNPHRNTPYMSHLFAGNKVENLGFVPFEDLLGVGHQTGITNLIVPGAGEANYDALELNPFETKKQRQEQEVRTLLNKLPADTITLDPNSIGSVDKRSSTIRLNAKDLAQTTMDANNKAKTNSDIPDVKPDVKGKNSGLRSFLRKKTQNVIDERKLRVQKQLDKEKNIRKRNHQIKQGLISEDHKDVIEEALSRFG

B1: Imp3 (protein, UniProt P32899 1-183)
chain: T1 sequence
B2: Utp15 (protein, UniProt Q04305 1-513)
chain: MSTARPRIITSKAPLLPQQTTPEQRYWRQYTSAQLVKEHNSVTHISFNPQHPHDFAVTSSTRVQIFSSRTRQVIKTFSRFKDVVYSASFRSDGKLLCAGDATGLVSVYDSYNPRTILLSINASTHPTHVTKFHTQDNKILATASDDRVTRLWDISNAYEPQLELTGATDYVRTLSFIPAAPHLVATGSYDGLIRLYDTRSSGSTPIYSLNHDQPVENVIAVSPTQIVSCGGNNFKVWDLTSNKKLYERGNFNKAVTCLDYVENFDSPMQSALIASSLDGHVKVFDPLDNFQVKFGWKFSGPVLSCAVSPSTAQGNRHLVAGLSSGLLAIRTKKKEKRSSDKENAPASFNKNAKSNNFQRMMRGSEYQGDQEHIIHNDKVRSQRRMRAFERNINQFKWSEALDNAFVPGMAKELTLTVLQELRKRGKVRVALYGRDESTLEPLLNWCLKGIEDVRSASIVADWVAVVLELYGNTLESSPVLQELMIDLKTKVRHEIHKSKEAQRIEGMLQLLTS
B3: Mpp10 (protein, UniProt P47083 1-593)
chain: MSELFGVLKSNAGRIILKDPSATSKDVKAYIDSVINTCKNGSITKKAELDEITVDGLDANQVWWQVKLVLDSIDGDLIQGIQELKDVVTPSHNLSDGSTLNSSSGEESELEEAESVFKEKQMLSADVSEIEEQSNDSLSENDEEPSMDDEKTSAEAAREEFAEEKRISSGQDERHSSPDPYGINDKFFDLEKFNRDTLAAEDSNEASEGSEDEDIDYFQDMPSDDEEEEAIYYEDFFDKPTKEPVKKHSDVKDPKEDEELDEEEHDSAMDKVKLDLFADEEDEPNAEGVGEASDKNLSSFEKQQIEIRKQIEQLENEAVAEKKWSLKGEVKAKDRPEDALLTEELEFDRTAKPVPVITSEVTESLEDMIRRRIQDSNFDDLQRRTLLDITRKSQRPQFELSDVKSSKSLAEIYEDDYTRAEDESALSEELQKAHSEISELYANLVYKLDVLSSVHFVPKPASTSLEIRVETPTISMEDAQPLYMSNASSLAPQEIYNVGKAEKDGEIRLKNGVAMSKEELTREDKNRLRRALKRKRSKANLPNVNKRSKRNDVVDTLSKAKNITVINQKGEKKDVSGKTKKSRSGPDSTNIKL
B4: Sof1 (protein, UniProt P33750 1-489)
chain: MKIKTIKRSADDYVPVKSTQESQMPRNLNPELHPFERAREYTKALNATKLERMFAKPFVGQLGYGHRDGVYAIAKNYGSLNKLATGSADGVIKYWNMSTREEFVSFKAHYGLVTGLCVTQPRFHDKKPDLKSQNFMLSCSDDKTVKLWSINVDDYSNKNSSDNDSVTNEEGLIRTFDGESAFQGIDSHRENSTFATGGAKIHLWDVNRLKPVSDLSWGADNITSLKFNQNETDILASTGSDNSIVLYDLRTNSPTQKIVQTMRTNAICWNPMEAFNFVTANEDHNAYYYDMRNLSRSLNVFKDHVSAVMDVDFSPTGDEIVTGSYDKSIRIYKTNHGHSREIYHTKRMQHVFQVKYSMDSKYIISGSDDGNVRLWRSKAWERSNVKTTREKNKLEYDEKLKERFRHMPEIKRISRHRHVPQVIKKAQEIKNIELSSIKRREANERRTRKDMPYISERKKQIVGTVHKYEDSGRDRKRRKEDDKRDTQEK

No constants are given. Whether binding was seen depends on the method and setting. Some entries that bind do so weakly or less than the wild type.

In the first assay the target is Utp10 with a C-terminal streptavidin-binding-peptide tag (S. cerevisiae) (UniProt P42945). The assay is described as follows: cryo-EM structure; 5' ETS RNP assembled in vivo on the MS2-tagged pre-rRNA mimic covering the 5' ETS, 5' domain and central domain (B222) in strain Y186; tandem purification (MS2-3C-GFP on anti-GFP nanobody sepharose, 3C elution, then Utp10-SBP on streptavidin sepharose, biotin elution); 50 mM Tris-HCl pH 7.5, 150 mM NaCl, 5 mM MgCl2; 4.3 Å.
As to Utp7 (from UniProt P40055 1-554), the binding result is “binds”. The same measure, in the same setting: with B1 the entry was “binds”; with B2, “binds”. On the same count and under the same terms, with B3 the entry was “binds”; with B4, “binds”.

Another assay deals with T1, Imp3 (S. cerevisiae (endogenous in BY4741-derived strain)). Described as above.
As to B3, the binding entry is reported as “binds”.

For the origin of these results see paper PMC6579516.
